Results: PMC4066782, “The telomerase inhibitor Gno1p/PINX1 activates the helicase Prp43p during ribosome biogenesis” (Nucleic Acids Research, 2014)
No constants are given. Whether binding was seen depends on the method and setting. Binding seen in cells or lysates may run through a third protein. Some results given as binding are weak or reduced against the parent protein; the word gives no strength. Tags and fused reporters may be left off the sequences shown.

By UniProt entry, the sequences of proteins in these tests, tags left out.
UniProt P34241: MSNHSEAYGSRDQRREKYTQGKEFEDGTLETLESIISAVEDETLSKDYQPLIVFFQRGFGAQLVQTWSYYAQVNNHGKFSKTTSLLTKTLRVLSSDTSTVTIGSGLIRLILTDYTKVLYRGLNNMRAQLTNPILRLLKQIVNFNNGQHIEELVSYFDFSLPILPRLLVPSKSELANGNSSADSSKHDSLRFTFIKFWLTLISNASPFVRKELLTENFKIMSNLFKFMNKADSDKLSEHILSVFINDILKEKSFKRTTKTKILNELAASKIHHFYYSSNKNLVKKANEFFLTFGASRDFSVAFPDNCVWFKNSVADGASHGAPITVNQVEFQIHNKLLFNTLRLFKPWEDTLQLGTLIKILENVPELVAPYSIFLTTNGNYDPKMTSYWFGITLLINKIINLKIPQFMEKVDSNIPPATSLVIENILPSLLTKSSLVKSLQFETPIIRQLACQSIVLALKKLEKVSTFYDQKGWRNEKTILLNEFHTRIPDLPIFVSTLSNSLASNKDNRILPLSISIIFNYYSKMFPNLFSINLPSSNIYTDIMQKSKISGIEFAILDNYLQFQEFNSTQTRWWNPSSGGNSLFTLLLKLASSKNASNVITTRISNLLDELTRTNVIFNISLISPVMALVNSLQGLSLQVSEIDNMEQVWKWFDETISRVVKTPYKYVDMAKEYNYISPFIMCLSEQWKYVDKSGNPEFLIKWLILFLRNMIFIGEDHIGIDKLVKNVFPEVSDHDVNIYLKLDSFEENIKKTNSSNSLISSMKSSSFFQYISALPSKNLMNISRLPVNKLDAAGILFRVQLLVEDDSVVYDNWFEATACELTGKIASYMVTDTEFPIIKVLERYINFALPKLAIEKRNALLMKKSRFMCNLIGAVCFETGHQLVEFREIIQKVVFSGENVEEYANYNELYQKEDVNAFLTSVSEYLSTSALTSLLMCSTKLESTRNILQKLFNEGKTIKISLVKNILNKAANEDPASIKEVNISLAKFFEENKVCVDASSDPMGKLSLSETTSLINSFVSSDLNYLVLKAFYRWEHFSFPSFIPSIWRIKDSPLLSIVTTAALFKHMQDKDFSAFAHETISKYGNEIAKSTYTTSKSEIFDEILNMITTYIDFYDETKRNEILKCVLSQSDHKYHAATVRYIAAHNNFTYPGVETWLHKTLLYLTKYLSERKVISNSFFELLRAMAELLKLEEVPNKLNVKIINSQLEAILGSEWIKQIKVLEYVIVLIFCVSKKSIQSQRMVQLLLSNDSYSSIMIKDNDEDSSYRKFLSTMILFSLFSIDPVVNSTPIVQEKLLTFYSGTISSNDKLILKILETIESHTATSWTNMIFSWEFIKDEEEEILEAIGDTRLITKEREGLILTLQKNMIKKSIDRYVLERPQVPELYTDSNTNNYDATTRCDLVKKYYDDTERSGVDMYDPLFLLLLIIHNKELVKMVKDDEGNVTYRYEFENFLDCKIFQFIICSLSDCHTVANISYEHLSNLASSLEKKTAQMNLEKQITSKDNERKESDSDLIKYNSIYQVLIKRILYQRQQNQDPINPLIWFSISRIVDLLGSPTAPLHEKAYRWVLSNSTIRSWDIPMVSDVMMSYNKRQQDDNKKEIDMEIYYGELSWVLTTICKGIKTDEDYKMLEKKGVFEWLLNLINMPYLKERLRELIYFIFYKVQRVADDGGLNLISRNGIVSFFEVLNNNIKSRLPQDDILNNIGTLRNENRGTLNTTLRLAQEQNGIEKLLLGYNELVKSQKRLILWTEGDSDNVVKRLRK
UniProt P40160: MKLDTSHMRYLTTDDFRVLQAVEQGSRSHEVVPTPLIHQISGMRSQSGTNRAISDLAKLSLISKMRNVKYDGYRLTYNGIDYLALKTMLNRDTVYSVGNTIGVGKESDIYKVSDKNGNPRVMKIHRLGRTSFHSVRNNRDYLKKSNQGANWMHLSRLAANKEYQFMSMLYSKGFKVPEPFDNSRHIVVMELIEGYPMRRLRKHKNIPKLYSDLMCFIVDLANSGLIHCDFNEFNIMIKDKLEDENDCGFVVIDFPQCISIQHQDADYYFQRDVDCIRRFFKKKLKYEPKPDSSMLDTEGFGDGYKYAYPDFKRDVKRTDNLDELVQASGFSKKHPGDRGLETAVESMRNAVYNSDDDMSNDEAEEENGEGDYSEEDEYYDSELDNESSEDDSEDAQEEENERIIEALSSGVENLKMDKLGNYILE

Assays:
Assay in all cases: co-IP; IgG sepharose beads precipitate the TAP- or ZZ-tagged protein from total yeast extracts; HA-tagged protein detected by western with anti-HA antibodies
Npa1p-ZZ (S. cerevisiae) = Npa1p-ZZ (S. cerevisiae) (UniProt P34241)
[1] = biological target: Rio2p-TAP (S. cerevisiae) (UniProt P40160)
[2] = biological target: T1, Utp13p-TAP (S. cerevisiae) (UniProt Q05946)
T1 sequence: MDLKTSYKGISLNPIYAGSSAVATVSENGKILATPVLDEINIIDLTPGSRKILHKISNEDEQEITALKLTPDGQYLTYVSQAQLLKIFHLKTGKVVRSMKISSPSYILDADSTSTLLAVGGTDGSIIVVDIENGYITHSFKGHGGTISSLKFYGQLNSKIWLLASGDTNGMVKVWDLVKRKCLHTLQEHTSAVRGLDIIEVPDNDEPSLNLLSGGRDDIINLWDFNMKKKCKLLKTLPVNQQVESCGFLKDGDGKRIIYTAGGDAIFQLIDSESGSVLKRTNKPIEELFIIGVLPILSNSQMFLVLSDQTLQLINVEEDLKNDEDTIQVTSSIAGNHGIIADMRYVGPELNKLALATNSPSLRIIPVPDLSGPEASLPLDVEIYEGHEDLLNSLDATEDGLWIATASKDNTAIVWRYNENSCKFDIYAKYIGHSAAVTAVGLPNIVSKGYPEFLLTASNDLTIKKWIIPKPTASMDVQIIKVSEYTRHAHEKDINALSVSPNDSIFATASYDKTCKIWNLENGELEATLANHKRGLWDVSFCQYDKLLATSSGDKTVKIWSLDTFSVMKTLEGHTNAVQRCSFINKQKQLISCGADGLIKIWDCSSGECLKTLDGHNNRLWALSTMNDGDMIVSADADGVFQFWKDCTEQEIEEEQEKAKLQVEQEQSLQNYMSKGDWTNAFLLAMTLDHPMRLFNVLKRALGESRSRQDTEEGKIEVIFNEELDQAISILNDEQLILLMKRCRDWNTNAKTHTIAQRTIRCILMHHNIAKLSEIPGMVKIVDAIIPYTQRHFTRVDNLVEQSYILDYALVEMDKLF

[3] = biological target: T2, Utp15p-TAP (S. cerevisiae) (UniProt Q04305)
T2 sequence: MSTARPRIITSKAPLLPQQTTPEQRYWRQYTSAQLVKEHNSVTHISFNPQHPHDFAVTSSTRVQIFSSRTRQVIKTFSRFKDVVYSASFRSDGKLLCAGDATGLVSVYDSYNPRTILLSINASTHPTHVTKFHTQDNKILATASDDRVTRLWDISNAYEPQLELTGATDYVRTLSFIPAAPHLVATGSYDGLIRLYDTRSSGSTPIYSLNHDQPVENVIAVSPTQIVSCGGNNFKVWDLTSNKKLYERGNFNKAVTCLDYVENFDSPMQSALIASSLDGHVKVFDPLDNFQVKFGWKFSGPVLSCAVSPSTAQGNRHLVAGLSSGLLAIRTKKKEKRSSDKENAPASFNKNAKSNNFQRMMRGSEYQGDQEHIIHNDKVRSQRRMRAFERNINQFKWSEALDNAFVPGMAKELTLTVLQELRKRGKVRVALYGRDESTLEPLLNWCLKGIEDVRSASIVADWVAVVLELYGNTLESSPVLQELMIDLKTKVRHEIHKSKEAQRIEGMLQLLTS

[4] = biological target: T3, Utp22p-TAP (S. cerevisiae) (UniProt P53254)
T3 sequence: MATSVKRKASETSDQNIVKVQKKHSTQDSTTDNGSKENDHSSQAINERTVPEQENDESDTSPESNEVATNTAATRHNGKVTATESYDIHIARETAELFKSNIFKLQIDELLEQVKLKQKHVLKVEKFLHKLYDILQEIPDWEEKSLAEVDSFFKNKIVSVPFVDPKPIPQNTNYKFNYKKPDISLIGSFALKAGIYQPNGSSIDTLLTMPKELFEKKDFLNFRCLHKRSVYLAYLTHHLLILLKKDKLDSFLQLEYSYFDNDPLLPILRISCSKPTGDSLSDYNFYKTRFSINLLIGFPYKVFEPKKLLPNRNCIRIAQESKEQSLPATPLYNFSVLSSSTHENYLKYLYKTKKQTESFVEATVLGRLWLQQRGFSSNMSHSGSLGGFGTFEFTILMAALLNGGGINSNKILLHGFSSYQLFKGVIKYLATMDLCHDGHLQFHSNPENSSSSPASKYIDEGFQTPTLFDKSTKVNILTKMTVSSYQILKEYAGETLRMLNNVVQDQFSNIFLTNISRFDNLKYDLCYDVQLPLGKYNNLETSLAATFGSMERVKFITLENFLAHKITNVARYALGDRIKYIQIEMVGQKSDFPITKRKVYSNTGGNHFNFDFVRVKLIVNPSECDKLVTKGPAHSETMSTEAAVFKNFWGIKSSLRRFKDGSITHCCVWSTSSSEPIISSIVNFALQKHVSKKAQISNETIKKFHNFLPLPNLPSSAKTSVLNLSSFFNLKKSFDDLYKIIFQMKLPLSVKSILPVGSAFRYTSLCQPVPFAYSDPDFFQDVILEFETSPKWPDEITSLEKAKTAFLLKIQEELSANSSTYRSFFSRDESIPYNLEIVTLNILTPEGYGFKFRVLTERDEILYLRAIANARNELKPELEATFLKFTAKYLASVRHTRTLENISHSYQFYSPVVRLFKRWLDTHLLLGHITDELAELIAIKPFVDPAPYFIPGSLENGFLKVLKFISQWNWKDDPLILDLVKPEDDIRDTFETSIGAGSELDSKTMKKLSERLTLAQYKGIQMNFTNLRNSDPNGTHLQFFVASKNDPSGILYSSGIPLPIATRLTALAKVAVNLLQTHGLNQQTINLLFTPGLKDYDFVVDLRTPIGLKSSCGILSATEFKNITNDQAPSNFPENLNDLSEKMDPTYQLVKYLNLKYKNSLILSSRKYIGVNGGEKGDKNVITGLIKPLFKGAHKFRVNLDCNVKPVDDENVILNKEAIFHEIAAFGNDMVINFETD

- binding (Npa1p-ZZ (S. cerevisiae)): binds
- binding [1]: no binding
- binding [2]: binds
- binding [3]: binds
- binding [4]: binds
B1: Gno1p-HA (GNO1-HA-TRP1 cassette, made with plasmid pFA6a-3HA-TRP1) (protein, UniProt P53335 1-271)
chain: MGLAATRTKQRFGLDPRNTAWSNDTSRFGHQFLEKFGWKPGMGLGLSPMNSNTSHIKVSIKDDNVGLGAKLKRKDKKDEFDNGECAGLDVFQRILGRLNGKESKISEELDTQRKQKIIDGKWGIHFVKGEVLASTWDPKTHKLRNYSNAKKRKREGDDSEDEDDDDKEDKDSDKKKHKKHKKHKKDKKKDKKDKKEHKKHKKEEKRLKKEKRAEKTKETKKTSKLKSSESASNIPDAVNTRLSVRSKWIKQKRAALMDSKALNEIFMITND
